PMC7528652, “Xrn1p acts at multiple steps in the budding-yeast RNAi pathway to enhance the efficiency of silencing”

Tests used:
[1] = target: T1, Ago1p (WT) (Naumovozyma castellii) (UniProt D5SHI8); assay: pull-down (RISC affinity capture); details: RISC loaded with miR-20a guide, eluted with competitor oligo, 300 mM glutamate/NP40 buffer; S72 all 2'-O-methyl RNA; S68 unmodified RNA; 50 mM Hepes pH 7.6, 300 mM potassium glutamate, 10 mM NaCl, 5 mM Mg acetate, 1 mM EGTA, 1 mM EDTA, 10% glycerol, 0.01% NP-40, 5 mM DTT, 30 C; recombinant protein; residues 2-1299; label: 3'-biotin on S72, radiolabelled guide; synthetic backbone
T1 sequence (looked up): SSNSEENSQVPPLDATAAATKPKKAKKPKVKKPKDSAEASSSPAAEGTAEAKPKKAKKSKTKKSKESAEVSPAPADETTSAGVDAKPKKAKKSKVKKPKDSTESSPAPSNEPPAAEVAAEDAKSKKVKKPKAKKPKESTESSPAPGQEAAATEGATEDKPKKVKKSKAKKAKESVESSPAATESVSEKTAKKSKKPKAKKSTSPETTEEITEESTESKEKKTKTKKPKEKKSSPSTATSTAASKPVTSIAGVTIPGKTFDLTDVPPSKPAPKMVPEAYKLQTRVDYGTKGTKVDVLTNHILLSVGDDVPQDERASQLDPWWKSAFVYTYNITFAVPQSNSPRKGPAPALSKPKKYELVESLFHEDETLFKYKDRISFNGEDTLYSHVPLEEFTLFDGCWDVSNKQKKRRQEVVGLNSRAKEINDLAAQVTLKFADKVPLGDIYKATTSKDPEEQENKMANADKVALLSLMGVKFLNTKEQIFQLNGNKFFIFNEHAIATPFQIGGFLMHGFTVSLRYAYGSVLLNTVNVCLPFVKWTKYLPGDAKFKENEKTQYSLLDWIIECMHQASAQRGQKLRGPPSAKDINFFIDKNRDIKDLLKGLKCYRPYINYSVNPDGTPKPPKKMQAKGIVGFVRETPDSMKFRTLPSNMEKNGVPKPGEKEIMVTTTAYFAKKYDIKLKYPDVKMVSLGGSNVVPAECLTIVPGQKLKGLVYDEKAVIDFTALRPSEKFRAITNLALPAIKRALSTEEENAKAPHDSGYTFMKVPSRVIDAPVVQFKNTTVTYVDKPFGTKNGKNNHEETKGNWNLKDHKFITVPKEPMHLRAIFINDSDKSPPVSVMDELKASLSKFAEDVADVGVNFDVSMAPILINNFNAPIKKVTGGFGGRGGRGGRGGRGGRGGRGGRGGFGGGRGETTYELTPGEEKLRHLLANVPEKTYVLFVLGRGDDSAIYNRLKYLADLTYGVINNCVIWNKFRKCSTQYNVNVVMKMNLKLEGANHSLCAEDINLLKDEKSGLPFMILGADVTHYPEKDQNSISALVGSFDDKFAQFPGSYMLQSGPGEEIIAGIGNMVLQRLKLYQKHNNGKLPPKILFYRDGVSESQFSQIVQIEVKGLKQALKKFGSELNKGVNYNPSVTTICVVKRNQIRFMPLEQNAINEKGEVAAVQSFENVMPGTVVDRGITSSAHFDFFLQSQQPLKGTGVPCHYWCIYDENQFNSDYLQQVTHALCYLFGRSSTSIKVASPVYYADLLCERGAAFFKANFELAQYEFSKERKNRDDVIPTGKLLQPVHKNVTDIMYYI

[2] = target: T1, Ago1p (WT) (Naumovozyma castellii); assay: filter binding (nitrocellulose-nylon); details: 100 nM Ago1p, 5 mM Mg2+, capped target RNA and tRNA present, no Xrn1p; 50 mM Hepes pH 7.6, 300 mM potassium glutamate, 10 mM NaCl, 5 mM Mg acetate, 1 mM EGTA, 1 mM EDTA, 10% glycerol, 0.01% NP-40, 5 mM DTT, 30 C; recombinant protein; residues 2-1299; label: 32P 5' end of guide strand (S68)

Sequence	binding result [1]	binding result [2]
UAAAGUGCUUAUAGUGCAGGUAG / CUCACCUUCUACACCACCGCACUUUAUCCUUACACAC	binds	–
UAAAGUGCUUAUAGUGCAGGUAG / ACCUGCACUAUAAGCACUUUAAG [miR-20a siRNA duplex]	–	binds

The exact form of at least one protein or probe is not confirmed. At least one verdict rests on a figure or table, not on a statement of the authors. Where a protein sequence is shown, tags need not be part of it.
